Where two headings read alike, the source gives them in different places. These are yes or no findings as the source states them, for the method shown. In cells and extracts the contact can be indirect. These calls come from enrichment with a bait or labelling near it, and not all partners need be listed. Sequences can lack the tags named with a protein.
T1: 1D4-tagged version of Ost4p (yeast) (UniProt Q99380)
T1 sequence: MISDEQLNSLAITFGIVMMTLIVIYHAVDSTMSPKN


Tests used:
[1] = target: T1, 1D4-tagged version of Ost4p (yeast); test: affinity purification with mass spectrometry
[2] = target: T1, 1D4-tagged version of Ost4p (yeast); test: affinity purification with mass spectrometry; remark: listed apart in the source

Molecule	binding [1]	binding [2]
Ost3p truncation that lacks the luminal domain (yeast) (domain or fragment)	binds	
OST6 TM2-4 (yeast) (domain or fragment)	binds	
OST3 TM2-4 (yeast) (domain or fragment)	binds	
Ost3p (protein, UniProt P48439 23-350) MSSNRLLKLANKSPKKIIPLKDSSFENILAPPHENAYIVALFTATAPEIGCSLCLELESEYDTIVASWFDDHPDAKSSNSDTSIFFTKVNLEDPSKTIPKAFQFFQLNNVPRLFIFKPNSPSILDHSVISISTDTGSERMKQIIQAIKQFSQVNDFSLHLPMDWTPIITSTIITFITVLLFKKQSKLMFSIISSRIIWATLSTFFIICMISAYMFNQIRNTQLAGVGPKGEVMYFLPNEFQHQFAIETQVMVLIYGTLAALVVVLVKGIQFLRSHLYPETKKAYFIDAILASFCALFIYVFFAALTTVFTIKSPAYPFPLLRLSAPFK		binds
Ost1p (protein, UniProt P41543 23-476, N-glycans at N99 and N217 (N217 variably occupied)) AQYEPPATWENVDYKRTIDVSNAYISETIEITIKNIASEPATEYFTAFESGIFSKVSFFSAYFTNEATFLNSQLLANSTTAPGDDGESEIRYGIIQFPNAISPQEEVSLVIKSFYNTVGIPYPEHVGMSEEQHLLWETNRLPLSAYDTKKASFTLIGSSSFEEYHPPNDESLLGKANGNSFEFGPWEDIPRFSSNETLAIVYSHNAPLNQVVNLRRDIWLSHWASTIQFEEYYELTNKAAKLSKGFSRLELMKQIQTQNMRQTHFVTVLDMLLPEGATDHYFTDLVGLVSTSHAERDHFFIRPRFPIFGGWNYNFTVGWTNKLSDFLHVSSGSDEKFVASIPILNGPPDTVYDNVELSVFLPEGAEIFDIDSPVPFTNVSIETQKSYFDLNKGHVKLTFSYRNLISQVANGQVLIKYDYPKSSFFKKPLSIACYIFTALMGVFVLKTLNMNVTN		binds

Results, then the molecule that gave them:

binding [1]	binding [2]	Molecule
binds		Ost6p truncation that lacks the luminal domain (yeast) (domain or fragment)
	binds	Stt3p (protein, UniProt P39007 1-718, N-glycan at N539) MGSDRSCVLSVFQTILKLVIFVAIFGAAISSRLFAVIKFESIIHEFDPWFNYRATKYLVNNSFYKFLNWFDDRTWYPLGRVTGGTLYPGLMTTSAFIWHALRNWLGLPIDIRNVCVLFAPLFSGVTAWATYEFTKEIKDASAGLLAAGFIAIVPGYISRSVAGSYDNEAIAITLLMVTFMFWIKAQKTGSIMHATCAALFYFYMVSAWGGYVFITNLIPLHVFLLILMGRYSSKLYSAYTTWYAIGTVASMQIPFVGFLPIRSNDHMAALGVFGLIQIVAFGDFVKGQISTAKFKVIMMVSLFLILVLGVVGLSALTYMGLIAPWTGRFYSLWDTNYAKIHIPIIASVSEHQPVSWPAFFFDTHFLIWLFPAGVFLLFLDLKDEHVFVIAYSVLCSYFAGVMVRLMLTLTPVICVSAAVALSKIFDIYLDFKTSDRKYAIKPAALLAKLIVSGSFIFYLYLFVFHSTWVTRTAYSSPSVVLPSQTPDGKLALIDDFREAYYWLRMNSDEDSKVAAWWDYGYQIGGMADRTTLVDNNTWNNTHIAIVGKAMASPEEKSYEILKEHDVDYVLVIFGGLIGFGGDDINKFLWMIRISEGIWPEEIKERDFYTAEGEYRVDARASETMRNSLLYKMSYKDFPQLFNGGQATDRVRQQMITPLDVPPLDYFDEVFTSENWMVRIYQLKKDDAQGRTLRDVGELTRSSTKTRRSIKRPELGLRV
	binds	Wbp1p (protein, UniProt P33767 21-430, N-glycans at N332 and N60 (N60 variably occupied)) TQTSRTLVLYDQSTEPLEEYSVYLKDLEQRNYKLEYLDINSTSTTVDLYDKEQRLFDNIIVFPTKGGKNLARQIPVKQLIKFFENEGNILCMSSPGAVPNTIRLFLNELGIYPSPKGHVIRDYFSPSSEELVVSSNHLLNKYVYNARKSEDFVFGESSAALLENREQIVPILNAPRTSFTESKGKCNSWTSGSQGFLVVGFQNLNNARLVWIGSSDFLKNKNQDSNQEFAKELLKWTFNEKSVIKSVHAVHSHADGTSYDEEPYKIKDKVIYSVGFSEWNGEEWLPHIADDIQFELRQVDPYYRLTLSPSGNDSETQYYTTGEFILPDRHGVFTFLTDYRKIGLSFTTDKDVKAIRHLANDEYPRSWEISNSWVYISAICGVIVAWIFFVVSFVTTSSVGKKLETFKKTN
	binds	Ost6p (natural protein, yeast, UniProt Q03723 25-332, looked up) TASHNIDDILQLKDDTGVITVTADNYPLLSRGVPGYFNILYITMRGTNSNGMSCQLCHDFEKTYHAVADVIRSQAPQSLNLFFTVDVNEVPQLVKDLKLQNVPHLVVYPPAESNKQSQFEWKTSPFYQYSLVPENAENTLQFGDFLAKILNISITVPQAFNVQEFVYYFVACMVVFIFIKKVILPKVTNKWKLFSMILSLGILLPSITGYKFVEMNAIPFIARDAKNRIMYFSGGSGWQFGIEIFSVSLMYIVMSALSVLLIYVPKISCVSEKMRGLLSSFLACVLFYFFSYFISCYLIKNPGYPIVF

— paper doi:10.1101/2021.05.17.443621 (bioRxiv, 2021)
